The list shows a part of the results.

Amino acid sequences for entries named in this document (tags omitted).
UniProt Q0JBA9, entry or part of it: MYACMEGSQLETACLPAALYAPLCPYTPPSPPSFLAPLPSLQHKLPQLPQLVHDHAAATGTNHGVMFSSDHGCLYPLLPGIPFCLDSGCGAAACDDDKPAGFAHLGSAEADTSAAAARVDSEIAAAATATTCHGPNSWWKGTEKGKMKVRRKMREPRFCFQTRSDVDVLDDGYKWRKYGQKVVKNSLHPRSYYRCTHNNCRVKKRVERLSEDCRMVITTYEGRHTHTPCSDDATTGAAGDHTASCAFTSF

For the experiment, the target named is OsWRKY34 (Oryza sativa, UniProt Q0JBA9 1-250). Description: protein-binding microarray (RPBM); PBS, 2% BSA, 51.3 ng/ul salmon testes DNA, 50 uM zinc acetate, 200 nM TF, 25 C, 1 h; high values mean tight binding. The note with it: protein: recombinant; tags: N-terminal polyhistidine and DsRed monomer fusion (pET32a); label: CyDye5-dUTP incorporated in the synthesized complementary strand; 3' TTTTT single-stranded linker to array surface; dsDNA, one strand shown. An outline of the steps:
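Transcription factors were made in E. coli BL21-CodonPlus as N-terminal fusions to a polyhistidine tag and DsRed, then purified on Ni–NTA. After primer extension with Cy5-dUTP and blocking with 2% BSA, a custom Agilent array was exposed for 1 h at 25 °C to 200 nM protein in PBS, 2% BSA, salmon testes DNA and 50 µM zinc acetate. Washed arrays were scanned on an Axon 4000B, and the binding signal is per-feature fluorescence intensity in arbitrary units.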
Turning to “CGCATATGCCTGCTCATCACTTTCTCCTTGTAGAGTTCTACGGAGTCACCTAGTGCAG”, the binding signal was 8890 fluorescence intensity (a.u.). The value for “TCGCCACCTCACCTCACCTCACCTCACTCGCGCCGCTATACGGAGTCACCTAGTGCAG” was 8560 fluorescence intensity (a.u.). The value for “TAAGTATTCTATTTGCTGCACCATGCATACACGTTAGTTGCGGAGTCACCTAGTGCAG” was 8640 fluorescence intensity (a.u.); that for “TTTCAGTACTTTGCGAGCATTTATACTTATACAAGAAATACGGAGTCACCTAGTGCAG” was 8580 fluorescence intensity (a.u.).

With “CCACCGAGCTCCGGGCCGGCCGCCACCCTTCATCGCCAGACGGAGTCACCTAGTGCAG”, the binding signal is 10100 fluorescence intensity (a.u.).

Take “TGAGAGCGGGCGTGTGGGTGGGAAAGCGACTATAGATGGCCGGAGTCACCTAGTGCAG”: the binding signal is 9330 fluorescence intensity (a.u.).

Consider “CTTGACTGACCACTGCAACTTCGTCTCCTCTCCCCTTAAACGGAGTCACCTAGTGCAG”, for which the binding signal is 11300 fluorescence intensity (a.u.). The value for “CGTCGCCGCAAAACCCCACGTCCCCACCTCGACTCGCCTCCGGAGTCACCTAGTGCAG” was 8460 fluorescence intensity (a.u.); that for “TTCGTTTTTCTTTTTTTTTTGATGGGGAGGTTGTAAAATGCGGAGTCACCTAGTGCAG” was 13800 fluorescence intensity (a.u.); that for “TCTTTTTAGATGGCAATAAATACTCCACTCTCTTGGATTTCGGAGTCACCTAGTGCAG” was 8790 fluorescence intensity (a.u.). Under “GCCCTCGTCGTCGTCCGACCACCCGATCCCGACGAGAACCCGGAGTCACCTAGTGCAG” stands 8690 fluorescence intensity (a.u.). The value for “TCGTACGCCGACATCTCCCGCCGCTCGCCGCGCGCCCAACCGGAGTCACCTAGTGCAG” was 9330 fluorescence intensity (a.u.); that for “CACTTCGCCGCGCTCTCCACTTTTGCAGCACATGCCGCCCCGGAGTCACCTAGTGCAG” was 9990 fluorescence intensity (a.u.). For “GGTTAGGGTTTGGGGTGGGGAGGGGTGGATGCGCGTGGGCCGGAGTCACCTAGTGCAG”, the binding signal is 21600 fluorescence intensity (a.u.). With “TGCATGCTGTCCTTTTTTGGCTGTGCCTGTTTTGCAATTTCGGAGTCACCTAGTGCAG”, the binding signal is 11300 fluorescence intensity (a.u.).

On to “CAACGCGGCTGATTGTGATTATGGTTAGAATTGTGTGTTTCGGAGTCACCTAGTGCAG”, for which the binding signal was 10400 fluorescence intensity (a.u.). Consider “AGTTTTTCTTTTCTTTTTTTATTTCATTTTCTATATTCTTCGGAGTCACCTAGTGCAG”, for which the binding signal was 10100 fluorescence intensity (a.u.). Under “CTGCCGCCGCCCGGGTCATCTGTTCCGCCCACCGCCGTCGCGGAGTCACCTAGTGCAG” stands 9420 fluorescence intensity (a.u.).

In the case of “GGTGCATTGGTATCATGAGTTTGTTATTTCTACTCAAGTACGGAGTCACCTAGTGCAG”, the binding signal is 8960 fluorescence intensity (a.u.). Under “TTTTCTCTGTTTACTTTTTTTTTATTATTTTTTTGCGCCGCGGAGTCACCTAGTGCAG” stands 8240 fluorescence intensity (a.u.); under “TTATTCTTCTCGCTACTAGAATCAGTGTTGTCTTAAAAACCGGAGTCACCTAGTGCAG”, 8620 fluorescence intensity (a.u.); under “GGCTGTGTTATGCCTTTTGTTCTGTTAGATATCACTCTCGCGGAGTCACCTAGTGCAG”, 9860 fluorescence intensity (a.u.). As for “CCTCCTCGGGCTTGACTCGTCTCGTCTCGACTCCACGAACCGGAGTCACCTAGTGCAG”, the binding signal is 8230 fluorescence intensity (a.u.). As for “GAAAGATTTTCACCGTTTGGGTAGGTTGGGGATGGGATGACGGAGTCACCTAGTGCAG”, the binding signal is 11400 fluorescence intensity (a.u.). Under “CTCCTCTCGCTCCACCGCTTCGTCACGCAGGCCTCCGTCGCGGAGTCACCTAGTGCAG” stands 9340 fluorescence intensity (a.u.); under “ACACGTTCTCTTGGATTCGATACCTTTGGAATACTCCGTACGGAGTCACCTAGTGCAG”, 8260 fluorescence intensity (a.u.); under “CCATTTTCGACCGTACCCTTTTGCCTACCATTAAATTCTGCGGAGTCACCTAGTGCAG”, 10300 fluorescence intensity (a.u.). As for “CACTACTCATCAGCCCACGTTAACACGCGTTCTCCGGTGGCGGAGTCACCTAGTGCAG”, the binding signal was 8220 fluorescence intensity (a.u.).

Consider “GATCTGTAGCTCGTTGCTCTTCTCTCTCTTCTTTTATTTTCGGAGTCACCTAGTGCAG”, for which the binding signal is 8390 fluorescence intensity (a.u.). Under “CCTCACCGGATGCTGCCCATGCCGATGCCGACCCGCCGTTCGGAGTCACCTAGTGCAG” stands 10200 fluorescence intensity (a.u.); under “TGTTTGCCACTTGCCATTTTGCCAGCCGACCAAGCGCCACCGGAGTCACCTAGTGCAG”, 9700 fluorescence intensity (a.u.). In the case of “TCTCGATTCACCTTCATCGTCAAGACTCACTACAACTTGTCGGAGTCACCTAGTGCAG”, the binding signal was 10400 fluorescence intensity (a.u.). For the sequence “CCATTAGGGAAGTCATCCCCACGTGCAGCTTTTTCTCGTCCGGAGTCACCTAGTGCAG”, the binding signal is 8680 fluorescence intensity (a.u.). With “TGTTGTTTCCTGTCCACTGACTCGCAGTTCATCCCGGATTCGGAGTCACCTAGTGCAG”, the binding signal is 9400 fluorescence intensity (a.u.).

Consider “TGTGTGTGAGCAGCCGCAGTCCTTACGTTTAGCCCAGTCACGGAGTCACCTAGTGCAG”, for which the binding signal is 8590 fluorescence intensity (a.u.). Take “TTTATGTGTGACTAAATATTTTCAGTTTTTTTATAAATTTCGGAGTCACCTAGTGCAG”: the binding signal is 8940 fluorescence intensity (a.u.).

For the sequence “ATAAGCTTTCTGTTTCAGTTATATGATGTACCTAATTATGCGGAGTCACCTAGTGCAG”, the binding signal was 9350 fluorescence intensity (a.u.). In the case of “AATTAACATCACCAATCAGCAATCACCAACCTTGTCATCTCGGAGTCACCTAGTGCAG”, the binding signal was 8970 fluorescence intensity (a.u.). The value for “AAGTGTAGGTGATTCATGTTGCAGTTATCCAGTTATTTCTCGGAGTCACCTAGTGCAG” was 11400 fluorescence intensity (a.u.); that for “GTTGTGTTATGATATATCACCTTCTAATATTAGATTATCCCGGAGTCACCTAGTGCAG” was 8820 fluorescence intensity (a.u.).

Regarding “GAAAGCCATCTCCACTGATTTTCGGTTCGTTTGCTATTGACGGAGTCACCTAGTGCAG”, the binding signal was 8390 fluorescence intensity (a.u.). Turning to “TTCTGTTTCTCTATTTTCCATGATAATCTTTCTGTTTCTTCGGAGTCACCTAGTGCAG”, the binding signal was 11100 fluorescence intensity (a.u.).

These data come from publication PMC7819943, “Rice protein-binding microarrays: a tool to detect cis-acting elements near promoter regions in rice”.
